Laboratory results reported in publication PMC6912348.
No constants are given. Whether binding was seen depends on the method and setting. In cells and extracts the contact can be indirect. Some binding calls cover weakened binding; strength is not graded here. For some of these results: Sequences can lack the tags named with a protein.

Chains of the proteins cited; added tags and fusions are not shown.
UniProt Q93008: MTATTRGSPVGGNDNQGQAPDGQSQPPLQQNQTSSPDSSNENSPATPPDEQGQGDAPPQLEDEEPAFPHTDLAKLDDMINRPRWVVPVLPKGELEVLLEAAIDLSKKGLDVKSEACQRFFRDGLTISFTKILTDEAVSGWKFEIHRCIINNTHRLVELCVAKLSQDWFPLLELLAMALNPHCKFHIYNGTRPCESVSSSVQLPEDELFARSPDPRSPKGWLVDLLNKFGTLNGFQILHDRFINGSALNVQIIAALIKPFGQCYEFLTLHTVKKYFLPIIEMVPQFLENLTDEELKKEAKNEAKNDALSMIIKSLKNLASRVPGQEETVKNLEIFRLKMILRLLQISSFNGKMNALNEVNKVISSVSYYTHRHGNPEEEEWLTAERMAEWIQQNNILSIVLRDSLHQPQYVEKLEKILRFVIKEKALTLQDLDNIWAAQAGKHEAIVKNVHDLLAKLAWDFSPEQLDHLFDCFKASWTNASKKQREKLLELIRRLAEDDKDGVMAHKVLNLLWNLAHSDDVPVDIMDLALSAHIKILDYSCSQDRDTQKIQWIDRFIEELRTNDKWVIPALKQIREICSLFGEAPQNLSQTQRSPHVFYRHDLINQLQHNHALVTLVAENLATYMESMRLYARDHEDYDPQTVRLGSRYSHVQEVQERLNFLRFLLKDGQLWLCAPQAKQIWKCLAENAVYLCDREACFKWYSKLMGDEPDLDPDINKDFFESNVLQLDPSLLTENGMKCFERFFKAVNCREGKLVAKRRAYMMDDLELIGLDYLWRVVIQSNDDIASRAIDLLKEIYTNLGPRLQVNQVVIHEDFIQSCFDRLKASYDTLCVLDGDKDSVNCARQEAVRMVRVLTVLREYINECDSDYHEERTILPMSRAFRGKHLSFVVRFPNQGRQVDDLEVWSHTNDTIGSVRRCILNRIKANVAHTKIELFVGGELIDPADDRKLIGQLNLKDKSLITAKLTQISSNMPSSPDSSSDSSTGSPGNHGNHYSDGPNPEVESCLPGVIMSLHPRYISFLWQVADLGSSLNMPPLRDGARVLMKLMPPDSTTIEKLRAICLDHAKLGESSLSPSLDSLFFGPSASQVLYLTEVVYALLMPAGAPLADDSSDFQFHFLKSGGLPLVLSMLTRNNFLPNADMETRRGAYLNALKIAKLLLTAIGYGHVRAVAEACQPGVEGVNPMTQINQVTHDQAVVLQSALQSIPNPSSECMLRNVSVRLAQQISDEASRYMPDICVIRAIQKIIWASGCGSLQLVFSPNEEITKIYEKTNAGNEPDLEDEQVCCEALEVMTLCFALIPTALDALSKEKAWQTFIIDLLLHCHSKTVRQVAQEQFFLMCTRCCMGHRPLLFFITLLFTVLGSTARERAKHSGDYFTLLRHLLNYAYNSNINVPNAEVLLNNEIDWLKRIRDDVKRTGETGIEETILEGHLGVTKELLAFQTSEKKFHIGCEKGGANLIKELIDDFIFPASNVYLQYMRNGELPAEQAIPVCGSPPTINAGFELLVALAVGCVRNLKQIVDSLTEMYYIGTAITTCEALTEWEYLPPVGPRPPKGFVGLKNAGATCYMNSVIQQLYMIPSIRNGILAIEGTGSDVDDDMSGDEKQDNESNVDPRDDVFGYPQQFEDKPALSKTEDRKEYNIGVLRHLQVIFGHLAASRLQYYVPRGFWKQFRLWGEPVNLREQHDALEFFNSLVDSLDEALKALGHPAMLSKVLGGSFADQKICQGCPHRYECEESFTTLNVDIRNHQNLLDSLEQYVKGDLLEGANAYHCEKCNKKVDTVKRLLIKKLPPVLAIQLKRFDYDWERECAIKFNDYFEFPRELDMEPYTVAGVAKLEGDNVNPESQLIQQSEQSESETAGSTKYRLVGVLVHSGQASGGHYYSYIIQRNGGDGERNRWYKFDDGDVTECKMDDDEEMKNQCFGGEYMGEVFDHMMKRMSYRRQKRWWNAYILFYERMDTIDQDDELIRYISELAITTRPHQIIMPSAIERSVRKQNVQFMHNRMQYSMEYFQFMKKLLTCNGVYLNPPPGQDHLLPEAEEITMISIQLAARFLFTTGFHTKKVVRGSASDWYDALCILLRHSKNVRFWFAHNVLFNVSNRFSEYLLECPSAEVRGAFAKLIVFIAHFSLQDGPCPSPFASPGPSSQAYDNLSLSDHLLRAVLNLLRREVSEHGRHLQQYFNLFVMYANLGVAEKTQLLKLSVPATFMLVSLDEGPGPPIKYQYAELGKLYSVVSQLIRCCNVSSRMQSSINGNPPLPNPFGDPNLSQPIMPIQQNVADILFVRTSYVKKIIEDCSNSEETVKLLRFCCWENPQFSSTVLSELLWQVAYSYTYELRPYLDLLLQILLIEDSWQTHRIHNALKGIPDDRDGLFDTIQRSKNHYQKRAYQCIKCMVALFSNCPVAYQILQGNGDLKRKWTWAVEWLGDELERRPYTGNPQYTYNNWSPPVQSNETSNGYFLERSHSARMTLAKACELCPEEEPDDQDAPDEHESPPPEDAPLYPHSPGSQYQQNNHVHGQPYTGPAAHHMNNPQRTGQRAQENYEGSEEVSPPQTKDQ
UniProt Q15154: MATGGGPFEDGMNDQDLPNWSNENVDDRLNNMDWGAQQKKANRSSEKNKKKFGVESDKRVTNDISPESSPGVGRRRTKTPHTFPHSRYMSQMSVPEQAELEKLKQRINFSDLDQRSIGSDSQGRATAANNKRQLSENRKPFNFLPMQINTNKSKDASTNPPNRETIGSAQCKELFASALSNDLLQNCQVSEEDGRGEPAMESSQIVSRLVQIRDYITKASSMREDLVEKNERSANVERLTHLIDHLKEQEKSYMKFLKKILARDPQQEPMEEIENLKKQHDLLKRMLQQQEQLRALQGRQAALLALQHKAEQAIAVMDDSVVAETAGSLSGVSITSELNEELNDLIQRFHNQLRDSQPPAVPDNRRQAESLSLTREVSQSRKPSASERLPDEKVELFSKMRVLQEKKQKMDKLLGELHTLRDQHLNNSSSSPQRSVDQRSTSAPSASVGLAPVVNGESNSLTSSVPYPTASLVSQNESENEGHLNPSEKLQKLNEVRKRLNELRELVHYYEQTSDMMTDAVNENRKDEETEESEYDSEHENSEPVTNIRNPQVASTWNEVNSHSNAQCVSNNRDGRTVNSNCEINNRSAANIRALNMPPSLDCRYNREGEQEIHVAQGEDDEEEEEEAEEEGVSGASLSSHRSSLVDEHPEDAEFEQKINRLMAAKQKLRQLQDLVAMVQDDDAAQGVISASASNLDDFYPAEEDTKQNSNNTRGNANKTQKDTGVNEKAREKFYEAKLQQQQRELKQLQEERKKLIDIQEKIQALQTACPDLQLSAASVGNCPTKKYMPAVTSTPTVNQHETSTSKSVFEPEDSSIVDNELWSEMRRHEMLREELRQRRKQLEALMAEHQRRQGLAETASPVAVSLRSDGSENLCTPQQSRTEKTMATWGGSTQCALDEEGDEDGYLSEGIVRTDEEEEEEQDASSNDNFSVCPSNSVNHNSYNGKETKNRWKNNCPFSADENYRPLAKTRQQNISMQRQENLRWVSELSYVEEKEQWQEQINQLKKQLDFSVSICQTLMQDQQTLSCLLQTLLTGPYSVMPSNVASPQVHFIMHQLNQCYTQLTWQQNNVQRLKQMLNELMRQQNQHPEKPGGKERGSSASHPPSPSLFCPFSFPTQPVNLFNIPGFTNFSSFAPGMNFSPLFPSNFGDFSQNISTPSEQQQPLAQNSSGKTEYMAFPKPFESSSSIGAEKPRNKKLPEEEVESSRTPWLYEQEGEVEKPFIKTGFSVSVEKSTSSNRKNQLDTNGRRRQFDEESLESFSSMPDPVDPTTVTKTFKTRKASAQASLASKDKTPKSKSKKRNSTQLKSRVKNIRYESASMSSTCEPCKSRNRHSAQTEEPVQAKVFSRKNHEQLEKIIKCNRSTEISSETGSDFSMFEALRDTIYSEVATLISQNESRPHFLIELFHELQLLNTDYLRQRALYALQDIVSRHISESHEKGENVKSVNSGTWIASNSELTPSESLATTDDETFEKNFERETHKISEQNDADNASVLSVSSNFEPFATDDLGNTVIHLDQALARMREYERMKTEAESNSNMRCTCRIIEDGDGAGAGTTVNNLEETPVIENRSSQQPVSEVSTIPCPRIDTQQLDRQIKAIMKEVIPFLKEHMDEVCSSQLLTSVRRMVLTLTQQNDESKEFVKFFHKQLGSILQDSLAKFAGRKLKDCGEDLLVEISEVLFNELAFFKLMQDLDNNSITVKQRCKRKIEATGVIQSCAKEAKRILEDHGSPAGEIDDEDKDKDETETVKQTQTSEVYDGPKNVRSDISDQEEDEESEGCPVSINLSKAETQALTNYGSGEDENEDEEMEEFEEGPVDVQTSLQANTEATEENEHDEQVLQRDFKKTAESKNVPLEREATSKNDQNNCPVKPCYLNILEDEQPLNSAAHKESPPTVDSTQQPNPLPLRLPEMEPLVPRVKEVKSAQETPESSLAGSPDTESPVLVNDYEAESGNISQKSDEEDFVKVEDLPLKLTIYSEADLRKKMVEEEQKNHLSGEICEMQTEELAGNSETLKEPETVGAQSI

How the values were obtained:
[1] = target: T1, sorting nexin 17 (SNX17), human full-length, with GFP-Flag-tag (human) (UniProt Q15036); assay: co-IP; tagged SNX17 or its truncations precipitated from cell lysate in RIPA buffer (50 mM Tris-HCl pH7.4, 150 mM NaCl, 2 mM EDTA, 1% NP-40) on Flag beads overnight at 4 °C; blots for PCM1, USP9X and MIB1; cells in serum-containing or serum-free medium
T1 sequence: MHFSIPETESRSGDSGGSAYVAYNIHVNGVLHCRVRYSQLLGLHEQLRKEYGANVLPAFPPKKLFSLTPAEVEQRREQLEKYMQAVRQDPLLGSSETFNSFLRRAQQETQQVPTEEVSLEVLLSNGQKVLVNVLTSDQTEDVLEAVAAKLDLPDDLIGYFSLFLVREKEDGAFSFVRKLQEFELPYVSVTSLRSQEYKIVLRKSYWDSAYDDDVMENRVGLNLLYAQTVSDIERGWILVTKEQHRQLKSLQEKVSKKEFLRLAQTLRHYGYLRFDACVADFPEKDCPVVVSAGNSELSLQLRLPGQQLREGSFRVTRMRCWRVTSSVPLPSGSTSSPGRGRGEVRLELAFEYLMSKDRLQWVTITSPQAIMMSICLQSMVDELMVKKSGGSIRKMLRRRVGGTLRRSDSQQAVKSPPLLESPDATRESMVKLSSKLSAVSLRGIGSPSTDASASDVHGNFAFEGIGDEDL

[2] = target: T2, sorting nexin 17 (SNX17), construct not told (human) (UniProt Q15036); assay: co-IP; SNX17 pull-down of endogenous PCM1 at increasing amounts of ectopically expressed USP9X (Supplementary Figure S5)
T2 sequence: T1 sequence

[3] = target: T3, human SNX17-PX+FERM (human) (UniProt Q15036); assay: co-IP; tagged SNX17 or its truncations precipitated from cell lysate in RIPA buffer (50 mM Tris-HCl pH7.4, 150 mM NaCl, 2 mM EDTA, 1% NP-40) on Flag beads overnight at 4 °C; blots for PCM1, USP9X and MIB1; cells in serum-containing or serum-free medium
T3 sequence: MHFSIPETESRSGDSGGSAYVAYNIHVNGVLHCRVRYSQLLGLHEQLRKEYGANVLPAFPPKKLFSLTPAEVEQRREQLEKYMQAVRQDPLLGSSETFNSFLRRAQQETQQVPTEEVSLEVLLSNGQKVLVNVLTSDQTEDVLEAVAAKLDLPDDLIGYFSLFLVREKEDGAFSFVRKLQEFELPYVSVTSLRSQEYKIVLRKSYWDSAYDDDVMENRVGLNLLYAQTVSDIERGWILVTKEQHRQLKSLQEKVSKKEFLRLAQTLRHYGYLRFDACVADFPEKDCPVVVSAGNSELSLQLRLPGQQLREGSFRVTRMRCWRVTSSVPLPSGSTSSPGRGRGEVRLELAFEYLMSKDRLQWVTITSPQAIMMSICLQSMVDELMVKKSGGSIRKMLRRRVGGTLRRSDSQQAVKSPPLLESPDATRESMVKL

Row | binding [1] | binding [2] | binding [3] | Substance
1 | binds |  |  | USP9X (ubiquitin-specific protease 9X) (from UniProt Q93008 1-2554) (enzyme)
2 | binds | binds | binds | pericentriolar material 1 (PCM1) (from UniProt Q15154 1-2024)
